From US6916808B2, “2-thio-4h-3, 1-benzoxazin-4-one derivatives for use as enzyme inhibitors” (Alizyme Therapeutics Limited, priority 2000, dated 2005)
Some of these results come from one statement about several compounds together.

Target: T1, human pancreatic lipase (Homo sapiens, UniProt P16233)
T1 sequence (P16233 17-465): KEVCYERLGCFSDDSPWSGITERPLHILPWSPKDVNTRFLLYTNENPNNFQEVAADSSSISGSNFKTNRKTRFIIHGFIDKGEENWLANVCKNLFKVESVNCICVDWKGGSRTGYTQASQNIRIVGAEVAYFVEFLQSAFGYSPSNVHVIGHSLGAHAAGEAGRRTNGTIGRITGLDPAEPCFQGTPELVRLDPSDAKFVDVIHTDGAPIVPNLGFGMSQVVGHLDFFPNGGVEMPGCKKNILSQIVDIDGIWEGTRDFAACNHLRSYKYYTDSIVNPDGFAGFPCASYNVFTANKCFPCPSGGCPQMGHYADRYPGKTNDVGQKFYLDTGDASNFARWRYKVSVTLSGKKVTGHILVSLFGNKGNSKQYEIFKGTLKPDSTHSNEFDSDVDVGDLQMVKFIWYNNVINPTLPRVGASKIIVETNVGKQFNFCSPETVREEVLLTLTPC
Experiment: Lipase activity, quinine diimine dye colorimetric assay (Sigma Lipase-PS)
Assay type: biochemical
Settings: compounds dissolved in DMSO, read-out: IC50 (concentration at which lipase activity is inhibited to one half of the maximum)

## CCCCCCCCSc1nc2ccc(C)cc2c(=O)o1 [Compound 1, 6-Methyl-2-octylthio-4H-3,1-benzoxazin-4-one]
  IC50: < 100 nM

## CCCCCCCCCCCCCCCCCCCCSc1nc2ccc(C)cc2c(=O)o1 [Compound 6, 6-Methyl-2-icosylthio-4H-3,1-benzoxazin-4-one]
  IC50: < 100 nM

## CCCCCCCCSc1nc2c(C)cccc2c(=O)o1 [Compound 3, 8-Methyl-2-octylthio-4H-3,1-benzoxazin-4-one]
  IC50: < 100 nM

## Cc1ccc2nc(SCCCCCCCCCCc3ccccc3)oc(=O)c2c1 [Compound 5, 6-Methyl-2-(10-phenyldecyl)-thio-4H-3,1-benzoxazin-4-one]
  IC50: < 100 nM

## CCCCCCCCCCCCCCCCSc1nc2ccc(C)cc2c(=O)o1 [Compound 7, 6-Methyl-2-hexadecylthio-4H-3,1-benzoxazin-4-one]
  IC50: < 100 nM

## CCCCCCCCSc1nc2cc(C)ccc2c(=O)o1 [Compound 2, 7-Methyl-2-octylthio-4H-3,1-benzoxazin-4-one-]
  IC50: < 100 nM
